Assay results as given in the supplement of paper PMC8728848.
This is one part of the list.

Experiments:
Assay in all cases: glycan array binding signal (z-score within array); higher = stronger binding
Settings in all cases: glycan notation: IUPAC condensed, linker removed
[1] = biological target: GlcNAc(b1-3)Gal(b1-4)GlcNAc(b1-3)Gal(b1-4)GlcNAc(b1-2)Man(a1-3)[GlcNAc(b1-3)Gal(b1-4)GlcNAc(b1-3)Gal(b1-4)GlcNAc(b1-2)Man(a1-6)]Man(b1-4)GlcNAc(b1-4)[Fuc(a1-6)]GlcNAc
Outline: (§1)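 The binding signal is a Z-score computed within each array. Data were drawn from 3228 arrays in the Consortium for Functional Glycomics database, restricted to those with a known protein sequence. Scores were averaged over arrays of the same protein sequence at different concentrations or buffers, and over linkers, and negative values can be taken as non-binding.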

[2] = biological target: GlcNAc(b1-3)Gal(b1-4)GlcNAc(b1-3)Gal(b1-4)GlcNAc(b1-2)[GlcNAc(b1-3)Gal(b1-4)GlcNAc(b1-3)Gal(b1-4)GlcNAc(b1-6)]Man(a1-6)[GlcNAc(b1-3)Gal(b1-4)GlcNAc(b1-3)Gal(b1-4)GlcNAc(b1-2)Man(a1-3)]Man(b1-4)GlcNAc(b1-4)[Fuc(a1-6)]GlcNAc
Outline: as §1

[3] = biological target: GlcNAc(b1-3)Gal(b1-4)GlcNAc(b1-3)Gal(b1-4)GlcNAc(b1-3)Gal(b1-4)GlcNAc(b1-2)Man(a1-3)[GlcNAc(b1-3)Gal(b1-4)GlcNAc(b1-3)Gal(b1-4)GlcNAc(b1-3)Gal(b1-4)GlcNAc(b1-2)Man(a1-6)]Man(b1-4)GlcNAc(b1-4)GlcNAc
Outline: as §1

[4] = biological target: GlcNAc(b1-3)Gal(b1-4)GlcNAc(b1-3)Gal(b1-4)GlcNAc(b1-3)Gal(b1-4)GlcNAc(b1-2)Man(a1-3)[GlcNAc(b1-3)Gal(b1-4)GlcNAc(b1-3)Gal(b1-4)GlcNAc(b1-3)Gal(b1-4)GlcNAc(b1-2)Man(a1-6)]Man(b1-4)GlcNAc(b1-4)[Fuc(a1-6)]GlcNAc
Outline: as §1

[5] = biological target: GlcNAc(b1-3)Gal(b1-4)GlcNAc(b1-3)Gal(b1-4)GlcNAc(b1-3)Gal(b1-4)GlcNAc(b1-2)[GlcNAc(b1-3)Gal(b1-4)GlcNAc(b1-3)Gal(b1-4)GlcNAc(b1-3)Gal(b1-4)GlcNAc(b1-6)]Man(a1-6)[GlcNAc(b1-3)Gal(b1-4)GlcNAc(b1-3)Gal(b1-4)GlcNAc(b1-3)Gal(b1-4)GlcNAc(b1-2)Man(a1-3)]Man(b1-4)GlcNAc(b1-4)[Fuc(a1-6)]GlcNAc
Outline: as §1

[6] = biological target: GlcNAc(b1-3)Gal(b1-4)GlcNAc(b1-3)Gal(b1-4)GlcNAc(b1-3)Gal(b1-4)GlcNAc(b1-3)Gal(b1-4)GlcNAc(b1-2)Man(a1-3)[GlcNAc(b1-3)Gal(b1-4)GlcNAc(b1-3)Gal(b1-4)GlcNAc(b1-3)Gal(b1-4)GlcNAc(b1-3)Gal(b1-4)GlcNAc(b1-2)Man(a1-6)]Man(b1-4)GlcNAc(b1-4)GlcNAc
Outline: as §1

[7] = biological target: GlcNAc(b1-3)Gal(b1-4)GlcNAc(b1-3)Gal(b1-4)GlcNAc(b1-3)Gal(b1-4)GlcNAc(b1-3)Gal(b1-4)GlcNAc(b1-2)Man(a1-3)[GlcNAc(b1-3)Gal(b1-4)GlcNAc(b1-3)Gal(b1-4)GlcNAc(b1-3)Gal(b1-4)GlcNAc(b1-3)Gal(b1-4)GlcNAc(b1-2)Man(a1-6)]Man(b1-4)GlcNAc(b1-4)[Fuc(a1-6)]GlcNAc
Outline: as §1

[8] = biological target: GlcNAc(b1-3)Gal(b1-4)GlcNAc(b1-3)Gal(b1-4)GlcNAc(b1-3)Gal(b1-4)GlcNAc(b1-3)Gal(b1-4)GlcNAc(b1-2)[GlcNAc(b1-3)Gal(b1-4)GlcNAc(b1-3)Gal(b1-4)GlcNAc(b1-3)Gal(b1-4)GlcNAc(b1-3)Gal(b1-4)GlcNAc(b1-6)]Man(a1-6)[GlcNAc(b1-3)Gal(b1-4)GlcNAc(b1-3)Gal(b1-4)GlcNAc(b1-3)Gal(b1-4)GlcNAc(b1-3)Gal(b1-4)GlcNAc(b1-2)Man(a1-3)]Man(b1-4)GlcNAc(b1-4)[Fuc(a1-6)]GlcNAc
Outline: as §1

[9] = biological target: GlcNAc(b1-3)Gal(b1-4)GlcNAc(b1-3)Gal(b1-4)GlcNAc(b1-3)GalNAc
Outline: as §1

[10] = biological target: GlcNAc(b1-3)Gal(b1-4)GlcNAc(b1-3)GalNAc
Outline: as §1

[11] = biological target: GlcNAc(b1-3)Gal(b1-4)GlcNAc(b1-3)[GlcNAc(b1-3)Gal(b1-4)GlcNAc(b1-3)]GalNAc
Outline: as §1

[12] = biological target: GlcNAc(b1-3)Gal(b1-4)GlcNAc(b1-6)[Gal(b1-3)]GalNAc
Outline: as §1

[13] = biological target: GlcNAc(b1-3)Gal(b1-4)GlcNAc(b1-6)[GlcNAc(b1-3)Gal(b1-3)]GalNAc
Outline: as §1

[14] = biological target: GlcNAc(b1-3)Gal(b1-4)GlcNAc(b1-6)[GlcNAc(b1-3)]Gal(b1-4)GlcNAc
Outline: as §1

[15] = biological target: GlcNAc(b1-3)GalNAc
Outline: as §1

[16] = biological target: GlcNAc(b1-3)Man
Outline: as §1

[17] = biological target: GlcNAc(b1-3)[GlcNAc(b1-4)][GlcNAc(b1-6)]GlcNAc
Outline: as §1

[18] = biological target: GlcNAc(b1-3)[GlcNAc(b1-6)]Gal(b1-4)GlcNAc
Outline: as §1

[19] = biological target: GlcNAc(b1-3)[GlcNAc(b1-6)]GalNAc
Outline: as §1

[20] = biological target: GlcNAc(b1-4)Gal(b1-4)GlcNAc
Outline: as §1

[21] = biological target: GlcNAc(b1-4)GlcNAc
Outline: as §1

[22] = biological target: GlcNAc(b1-4)GlcNAc(b1-4)GlcNAc
Outline: as §1

[23] = biological target: GlcNAc(b1-4)GlcNAc(b1-4)GlcNAc(b1-4)GlcNAc(b1-4)GlcNAc
Outline: as §1

B1: truncCC1G-10077 (Coprinopsis cinerea) (protein)
chain: MHHHHHHHHPLPSPGPGWVLIQNGGTGKFLCSTPSGDIGTADGPETVYDYSVQWRFIQREYTGVYHVVNRATGAYLRQIGTSMPSIGLAEENDDELKDWWMLETYDNSEIGLASIISRWTGNVLDHYGGVSVQALDNNTENSYRSWAIIPARDWLTSFSLVNGQGGLCLAAQYAREETRLSTTANVNDFHAQWVFRKPSGSSGYTIQNKYNNHYVGGTSARWELVVCCNKYFGIRNTSTQKYLAIEDGQVTFQDQDMTDRKQCWELCSGRATDTSGNDYDLIYMDDDLLEVMIPWVGDKQGDLKHYIEKRATKKPPKDKGGWQLPAAGLIKKPKFNDIRQLLQELIEQWEWDVVNEEREQIQTLVSIDEAEARRLLGRRPHPDIVAAYQRSRSSTLFRIDRQGYFNIAGDRYVNIQGQYGDDSYFHIALPVGVRFGREQIRRFLRDSLDRSTSVTITPTTCKPPSGGPDYNRDPDSDGDNSWIKWTIAVVGTSAIKHSEL
- glycan array binding signal (z-score) [1]: 2.08
- glycan array binding signal (z-score) [2]: -0.021
- glycan array binding signal (z-score) [3]: -0.258
- glycan array binding signal (z-score) [4]: 1.05
- glycan array binding signal (z-score) [5]: 0.218
- glycan array binding signal (z-score) [6]: 1.96
- glycan array binding signal (z-score) [7]: 0.189
- glycan array binding signal (z-score) [8]: 0.672
- glycan array binding signal (z-score) [9]: -0.234
- glycan array binding signal (z-score) [10]: -0.488
- glycan array binding signal (z-score) [11]: -0.957
- glycan array binding signal (z-score) [12]: -0.169
- glycan array binding signal (z-score) [13]: -0.74
- glycan array binding signal (z-score) [14]: -0.807
- glycan array binding signal (z-score) [15]: -0.729
- glycan array binding signal (z-score) [16]: -0.247
- glycan array binding signal (z-score) [17]: -0.693
- glycan array binding signal (z-score) [18]: -0.587
- glycan array binding signal (z-score) [19]: -0.893
- glycan array binding signal (z-score) [20]: -0.615
- glycan array binding signal (z-score) [21]: -0.418
- glycan array binding signal (z-score) [22]: -0.557
- glycan array binding signal (z-score) [23]: -0.873
